Experimental data reported in the supplement of paper PMC3334620.
Over roughly 33,000 sequences, “E-score (-0.5 to 0.5)” has its median near -8e-05; the highest 2% begin near 0.23. This is one part of the list.

molecular target: T1, Nrg2 (UniProt P38082); assay: PBM E-score (8-mer binding enrichment) (E-score (-0.5 to 0.5)); higher = stronger / more preferred TF binding; conditions: protein concentration: 100 nM; construct: GST-full length
T1 sequence: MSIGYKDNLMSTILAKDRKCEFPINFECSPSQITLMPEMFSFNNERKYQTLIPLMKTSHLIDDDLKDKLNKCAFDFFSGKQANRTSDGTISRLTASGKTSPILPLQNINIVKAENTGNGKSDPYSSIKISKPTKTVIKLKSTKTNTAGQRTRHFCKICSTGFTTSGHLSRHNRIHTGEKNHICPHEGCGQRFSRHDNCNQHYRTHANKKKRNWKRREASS
Experimental: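 Universal 'all 10-mer' protein binding microarrays (Agilent AMADID 015681) probed with GST-tagged S. cerevisiae TFs (full-length or DBD) made by in vitro transcription/translation (PURExpress), about 100-200 nM. Bound TF was detected with fluorescent anti-GST. Each ungapped 8-mer (which stands for itself and its reverse complement) is scored by the PBM enrichment score (E-score), a modified Wilcoxon-Mann-Whitney statistic from -0.5 to +0.5, computed with the Universal PBM Analysis Suite. Scale: above 0.35 generally sequence-specific binding.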

Sequence | PBM E-score
GCAAGACA | -0.0471
TGGCCCAA | 0.106
CCACGGCG | -0.0563
CCGGTGGA | -0.0862
AGTGATTG | 0.131
ACGAGTGG | -0.11
ACGTCGTA | -0.229
ATTCTAGA | -0.141
AAGGTAGG | 0.00624
TGGTGAAA | -0.0676
CAGGTCAA | 0.0245
GGACGCCC | -0.241
AACGGTCT | -0.127
AAACACTG | 0.0488
CGATCATA | 0.111
GAGGAAAA | -0.0374
CCAGGTCG | -0.0366
TAAAACCA | -0.0629
GCATGCAA | 0.161
ACGCGCTA | 0.0075
ATCTGCGC | 0.0656
CAGGCAAG | -0.0417
CTTCAGTA | 0.0263
CGCCGCCC | 0.0213
CTGCAGCA | 0.15

Reprinted at random: 6 entries already listed, in no set order.
Sequence | PBM E-score
AAGGTAGG | 0.00624
CAGGCAAG | -0.0417
CCAGGTCG | -0.0366
AAACACTG | 0.0488
CGATCATA | 0.111
CAGGTCAA | 0.0245

More records follow.

Sequence | PBM E-score
CATGGATC | -0.00475
AGTATGCC | 0.0279
CTAGCTCA | 0.109
AGGAGCAA | -0.119
CTGGTCGA | -0.255
AATTCGAA | 0.13
GATAGTTA | 0.0383
ACGGTTTC | 0.0284
GCACATAC | -0.219
ACGTCTCA | 0.144
CACGTGAG | -0.0345
CCGCAAAG | 0.117
GCCCGATA | -0.175
CGTAGTAA | 0.0543
ACAGACGA | 0.104
AATGCGAT | 0.102
AATCCAGG | 0.21
TCCGAGCA | 0.0777
GAAGGCAA | 0.0388
AAGATATG | 0.158
ACCTAGCA | 0.103
CCAAAGGC | -0.266
GCTATGAC | -0.0998
AGCCAATC | -0.141
ACGTCAGC | 0.129

Sequence | PBM E-score
CCGTCACG | -0.0676
GAGTGGAA | -0.181
AGGGCCAA | -0.219
ACCCGCAC | 0.141
TGATTGCA | 0.156
AGGACTCG | -0.219
GACAAATA | 0.21
CAGGGATC | 0.238
AAATCCCG | 0.0585
AGGATTGC | -0.172
CAGACGGG | -0.0638
ATGATATC | 0.0898
CGCCGCTC | 0.0612
CCCCACGC | -0.127
ATGAGCCA | -0.0105
GGATTAAC | -0.114
CCCGCCTA | 0.0142
AATAAGAC | -0.123
CGTCTAGC | -0.11
AAGCCCGA | -0.122
ATCGACCA | -0.121
CGAGAATC | 0.0501
ACACAATC | -0.0733
TGTCAGAA | -0.17
ATGCAACC | 0.117

Sequence | PBM E-score
ACGTTGAA | 0.0955
GCTACAAA | 0.119
CATGCACG | -0.0976
AAGGATGA | -0.0508
CACTATTC | 0.058
AAGAGATG | 0.0143
CTGGACCA | -0.0552
AAGTTCGG | 0.0102
ACACTTGG | 0.0484
GGTGCCAA | -0.0376
ACTTCGAG | 0.117
ATCGGCTC | -0.0282
AGAATTCC | -0.0647
AAACATCA | 0.108
AGGTAGGG | -0.004
AGACGTTA | -0.125
GACCTTGA | 0.099
GAGAATTA | 0.0707
AGAATCCA | 0.0493
ACCTCCGG | 0.0492
CGACTCGC | -0.0213
GATTAGTA | 0.111
AAGATATT | 0.126
GTATGTTA | -0.0277
GATTAATA | 0.29

A portion from the list above, for reference:
Sequence | PBM E-score
AGAATCCA | 0.0493
ACCTCCGG | 0.0492

Additional results

Sequence | PBM E-score
TAAAACAA | -0.0382
GGGGAATA | -0.00627
ATAACGAC | 0.102
CCAACGAC | -0.211
ACCAGACC | 0.0496
GTCTCAGA | -0.0893
CGATAAAC | -0.0733
GTACCGTA | -0.0593
ACTGACCT | 0.0173
CAAACGTA | 0.105
CTCTATCA | -0.0589
GATTGGGC | 0.0756
GGAAAACA | 0.111
ATGTTTTG | 0.0892
CAGTACGG | -0.113
AGGCTACC | -0.25
CGCTATAC | 0.0646
GCTTGCCC | -0.293
GCGTCAGC | -0.183
AAATTGCA | 0.232
GTCTACGA | -0.143
AGTTGTCC | 0.0314
ATTGAGTC | 0.0274
GTCTAACA | -0.216
CGGAACGA | 0.195

Some values from the list:
Value for AGGAGCAA under PBM E-score: -0.119
Value for AGACGTTA under PBM E-score: -0.125

(continued)

Sequence | PBM E-score
GCGCGATA | 0.254
AGGACAAA | 0.169
TGCAGAAA | 0.104
AGTAGGTG | -0.0986
TCGGGACA | 0.0361
CATCTATC | -0.0427
GACCCTGA | 0.389
AAACCGCA | -0.0776
CCCGGTTC | -0.162
CACGTTCA | -0.169
CCGGCTTA | 0.0301
AAACCCGT | -0.00439
CCCTACAG | -0.146
GATTCAGA | 0.157
ACGCTTCA | -0.188
ATCTTCAC | 0.0737
AGCTCCCC | -0.146
ACATATGT | -0.149
ACAGCGGC | -0.183
CGATCTGA | 0.078
ACGGTGTC | -0.125
CTCTCCAG | -0.139
GACCGCTC | -0.187
CCTACACG | -0.213
CCTTGCGC | 0.166

Sequence | PBM E-score
CCAAAGGG | 0.158
ACAGCAGA | 0.0514
GGACATCC | -0.0215
TTAATGAA | 0.123
CTATCAAC | 0.0112
GCTTCCCA | -0.222
AAAGCTTC | -0.122
ATATCGAT | 0.213
CTATGCTA | -0.00029
ATGTTGAC | 0.0638
CAGGGGGA | -0.184
GAGTCTAC | -0.0996
GTTTCTAA | -0.0624
CAGTGCAA | 0.0968
GTTTACTA | 0.155
GGCGTTTA | -0.0523
TACACCCA | 0.149
CAAATTTG | 0.107
ACCAGTCA | -0.0898
CACCATAC | -0.0811
GTTGACGA | 0.00106
ATAAATTA | 0.316
